Results from publication PMC3827198, “Characterisation of AmphiAmR11, an Amphioxus (Branchiostoma floridae) D2-Dopamine-Like G Protein-Coupled Receptor” (PLoS ONE, 2013).
pEC50: −log10 of the molar value. Where a name gives a salt, the structure may show the parent alone. Read-outs that look alike come from different tables or passages of the source.

Amino acid sequences for entries named in this document (tags omitted).
UniProt A0PF35, entry or part of it: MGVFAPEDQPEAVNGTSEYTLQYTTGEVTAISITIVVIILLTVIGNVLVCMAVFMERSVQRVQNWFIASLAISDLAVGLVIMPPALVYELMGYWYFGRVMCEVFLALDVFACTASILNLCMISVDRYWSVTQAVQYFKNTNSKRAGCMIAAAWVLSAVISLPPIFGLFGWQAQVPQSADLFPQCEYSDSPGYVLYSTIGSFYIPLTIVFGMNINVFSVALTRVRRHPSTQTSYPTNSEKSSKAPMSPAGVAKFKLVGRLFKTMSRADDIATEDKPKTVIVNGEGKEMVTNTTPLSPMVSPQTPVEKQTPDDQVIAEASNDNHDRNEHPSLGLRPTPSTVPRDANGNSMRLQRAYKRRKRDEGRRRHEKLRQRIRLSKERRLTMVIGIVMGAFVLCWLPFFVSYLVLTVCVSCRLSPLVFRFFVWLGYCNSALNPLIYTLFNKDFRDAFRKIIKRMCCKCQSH

Molecular target: AmphiAmR11 (Branchiostoma floridae, UniProt A0PF35)
Assay: Inhibition of forskolin-stimulated cAMP levels in AmphiAmR11-expressing CHO-K1 cells (agonist mode)
Type: cell-based

pEC50 (10 µM forskolin, 100 µM IBMX, 20 min, full concentration response curves, read-out: EC50 for decrease in forskolin-stimulated cAMP levels)	SMILES	pEC50
7.90	CN1CCN2c3ccccc3Cc3ccccc3C2C1 (centres unmarked) [mianserin, mianserin hydrochloride]	
	CCCN1CCC[C@@H]2Cc3n[nH]cc3C[C@H]21 [quinpirole, (-)-quinpirole hydrochloride]	7.50
